# Data from the supplement of paper PMC11732987, “Enantioselective OTUD7B fragment discovery through chemoproteomics screening and high-throughput optimisation” (Communications Chemistry, 2025).
# Chains of the proteins cited; added tags and fusions are not shown. Lines headed by an entry give the natural chain unless they say otherwise; changes in a name come on top. Residues count along the entry.
# UniProt Q15004: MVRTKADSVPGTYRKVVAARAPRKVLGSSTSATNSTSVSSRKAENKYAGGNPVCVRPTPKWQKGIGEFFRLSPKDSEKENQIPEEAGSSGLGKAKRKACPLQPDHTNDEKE
# UniProt O95613, 550-572: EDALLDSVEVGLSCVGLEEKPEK
# UniProt O15067, 508-527: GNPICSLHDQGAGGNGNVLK
# UniProt Q9BRP1: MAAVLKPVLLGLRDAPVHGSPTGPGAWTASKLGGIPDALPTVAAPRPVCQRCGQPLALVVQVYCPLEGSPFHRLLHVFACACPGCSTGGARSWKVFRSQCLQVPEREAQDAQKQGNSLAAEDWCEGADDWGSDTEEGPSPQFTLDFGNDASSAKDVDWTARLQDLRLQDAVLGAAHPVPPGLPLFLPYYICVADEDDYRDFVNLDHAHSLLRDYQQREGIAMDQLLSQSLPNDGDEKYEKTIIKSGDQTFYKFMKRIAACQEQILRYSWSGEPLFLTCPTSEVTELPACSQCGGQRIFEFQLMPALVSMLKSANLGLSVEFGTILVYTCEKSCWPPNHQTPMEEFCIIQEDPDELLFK
# UniProt Q96RD7, 167-192: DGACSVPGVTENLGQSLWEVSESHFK
# UniProt Q6P996: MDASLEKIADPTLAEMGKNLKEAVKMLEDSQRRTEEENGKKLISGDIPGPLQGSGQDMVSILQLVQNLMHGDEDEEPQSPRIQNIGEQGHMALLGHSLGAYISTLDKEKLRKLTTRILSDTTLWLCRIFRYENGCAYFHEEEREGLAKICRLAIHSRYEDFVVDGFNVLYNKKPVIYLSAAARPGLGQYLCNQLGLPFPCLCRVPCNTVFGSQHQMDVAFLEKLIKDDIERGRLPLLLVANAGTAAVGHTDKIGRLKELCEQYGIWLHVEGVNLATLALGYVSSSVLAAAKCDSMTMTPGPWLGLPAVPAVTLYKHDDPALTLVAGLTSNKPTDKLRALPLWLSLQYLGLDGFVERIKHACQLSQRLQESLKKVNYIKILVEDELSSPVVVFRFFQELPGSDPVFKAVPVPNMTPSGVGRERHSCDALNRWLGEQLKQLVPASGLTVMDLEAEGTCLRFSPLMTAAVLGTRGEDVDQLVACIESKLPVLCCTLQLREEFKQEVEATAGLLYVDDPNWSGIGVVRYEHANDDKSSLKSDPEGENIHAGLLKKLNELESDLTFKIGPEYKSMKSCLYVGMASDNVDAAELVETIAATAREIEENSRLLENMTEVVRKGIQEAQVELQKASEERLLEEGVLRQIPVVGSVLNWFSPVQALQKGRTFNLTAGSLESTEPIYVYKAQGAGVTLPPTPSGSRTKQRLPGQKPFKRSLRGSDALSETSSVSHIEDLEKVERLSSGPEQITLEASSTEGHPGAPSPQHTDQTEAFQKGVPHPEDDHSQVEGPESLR
# UniProt P18669, 142-162: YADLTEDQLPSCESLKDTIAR
# UniProt Q9H792: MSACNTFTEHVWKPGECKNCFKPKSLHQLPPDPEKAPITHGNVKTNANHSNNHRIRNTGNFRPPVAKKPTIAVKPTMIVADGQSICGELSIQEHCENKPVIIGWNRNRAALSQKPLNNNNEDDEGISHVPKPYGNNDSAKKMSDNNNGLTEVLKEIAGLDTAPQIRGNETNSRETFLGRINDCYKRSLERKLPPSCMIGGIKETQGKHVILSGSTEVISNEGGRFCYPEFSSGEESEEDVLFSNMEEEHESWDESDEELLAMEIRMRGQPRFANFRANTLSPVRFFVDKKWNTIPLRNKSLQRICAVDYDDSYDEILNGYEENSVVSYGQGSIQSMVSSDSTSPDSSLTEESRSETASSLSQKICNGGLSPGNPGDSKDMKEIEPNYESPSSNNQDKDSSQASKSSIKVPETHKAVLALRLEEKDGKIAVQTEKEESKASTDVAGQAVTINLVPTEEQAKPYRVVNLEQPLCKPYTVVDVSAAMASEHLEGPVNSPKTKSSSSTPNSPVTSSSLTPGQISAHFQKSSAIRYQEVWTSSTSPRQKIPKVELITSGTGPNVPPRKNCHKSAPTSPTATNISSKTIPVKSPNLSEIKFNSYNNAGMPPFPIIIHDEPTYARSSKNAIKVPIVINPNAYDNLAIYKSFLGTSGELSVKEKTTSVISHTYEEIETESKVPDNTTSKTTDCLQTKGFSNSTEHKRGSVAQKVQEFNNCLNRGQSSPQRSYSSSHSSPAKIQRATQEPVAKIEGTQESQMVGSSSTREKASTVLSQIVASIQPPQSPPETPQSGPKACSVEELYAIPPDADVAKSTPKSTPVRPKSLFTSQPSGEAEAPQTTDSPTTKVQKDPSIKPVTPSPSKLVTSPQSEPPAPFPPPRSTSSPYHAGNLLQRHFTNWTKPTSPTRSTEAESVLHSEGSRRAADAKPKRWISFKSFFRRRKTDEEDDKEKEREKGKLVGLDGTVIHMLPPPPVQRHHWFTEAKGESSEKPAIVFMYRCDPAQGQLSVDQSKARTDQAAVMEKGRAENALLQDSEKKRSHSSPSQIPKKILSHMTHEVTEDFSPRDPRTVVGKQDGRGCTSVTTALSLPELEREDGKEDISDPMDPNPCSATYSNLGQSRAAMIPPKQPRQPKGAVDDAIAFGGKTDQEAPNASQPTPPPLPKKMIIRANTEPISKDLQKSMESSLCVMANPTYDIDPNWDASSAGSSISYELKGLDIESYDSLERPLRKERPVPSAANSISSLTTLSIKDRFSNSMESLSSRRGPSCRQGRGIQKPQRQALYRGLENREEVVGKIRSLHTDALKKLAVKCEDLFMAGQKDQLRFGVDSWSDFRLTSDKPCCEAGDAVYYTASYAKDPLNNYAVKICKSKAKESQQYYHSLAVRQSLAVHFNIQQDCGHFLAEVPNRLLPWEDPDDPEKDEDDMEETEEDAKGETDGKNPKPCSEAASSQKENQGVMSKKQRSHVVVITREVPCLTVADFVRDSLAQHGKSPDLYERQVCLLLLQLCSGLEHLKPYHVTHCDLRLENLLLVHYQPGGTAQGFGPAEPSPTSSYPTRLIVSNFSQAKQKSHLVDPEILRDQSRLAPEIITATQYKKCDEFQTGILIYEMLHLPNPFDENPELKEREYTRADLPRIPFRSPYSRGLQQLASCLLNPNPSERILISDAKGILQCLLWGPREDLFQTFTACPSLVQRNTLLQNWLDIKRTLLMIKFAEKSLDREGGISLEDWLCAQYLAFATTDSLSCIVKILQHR
# UniProt Q29RF7, 1-22: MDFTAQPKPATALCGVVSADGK
# UniProt Q29RF7, 518-538: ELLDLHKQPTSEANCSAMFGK
# UniProt Q8TEW0: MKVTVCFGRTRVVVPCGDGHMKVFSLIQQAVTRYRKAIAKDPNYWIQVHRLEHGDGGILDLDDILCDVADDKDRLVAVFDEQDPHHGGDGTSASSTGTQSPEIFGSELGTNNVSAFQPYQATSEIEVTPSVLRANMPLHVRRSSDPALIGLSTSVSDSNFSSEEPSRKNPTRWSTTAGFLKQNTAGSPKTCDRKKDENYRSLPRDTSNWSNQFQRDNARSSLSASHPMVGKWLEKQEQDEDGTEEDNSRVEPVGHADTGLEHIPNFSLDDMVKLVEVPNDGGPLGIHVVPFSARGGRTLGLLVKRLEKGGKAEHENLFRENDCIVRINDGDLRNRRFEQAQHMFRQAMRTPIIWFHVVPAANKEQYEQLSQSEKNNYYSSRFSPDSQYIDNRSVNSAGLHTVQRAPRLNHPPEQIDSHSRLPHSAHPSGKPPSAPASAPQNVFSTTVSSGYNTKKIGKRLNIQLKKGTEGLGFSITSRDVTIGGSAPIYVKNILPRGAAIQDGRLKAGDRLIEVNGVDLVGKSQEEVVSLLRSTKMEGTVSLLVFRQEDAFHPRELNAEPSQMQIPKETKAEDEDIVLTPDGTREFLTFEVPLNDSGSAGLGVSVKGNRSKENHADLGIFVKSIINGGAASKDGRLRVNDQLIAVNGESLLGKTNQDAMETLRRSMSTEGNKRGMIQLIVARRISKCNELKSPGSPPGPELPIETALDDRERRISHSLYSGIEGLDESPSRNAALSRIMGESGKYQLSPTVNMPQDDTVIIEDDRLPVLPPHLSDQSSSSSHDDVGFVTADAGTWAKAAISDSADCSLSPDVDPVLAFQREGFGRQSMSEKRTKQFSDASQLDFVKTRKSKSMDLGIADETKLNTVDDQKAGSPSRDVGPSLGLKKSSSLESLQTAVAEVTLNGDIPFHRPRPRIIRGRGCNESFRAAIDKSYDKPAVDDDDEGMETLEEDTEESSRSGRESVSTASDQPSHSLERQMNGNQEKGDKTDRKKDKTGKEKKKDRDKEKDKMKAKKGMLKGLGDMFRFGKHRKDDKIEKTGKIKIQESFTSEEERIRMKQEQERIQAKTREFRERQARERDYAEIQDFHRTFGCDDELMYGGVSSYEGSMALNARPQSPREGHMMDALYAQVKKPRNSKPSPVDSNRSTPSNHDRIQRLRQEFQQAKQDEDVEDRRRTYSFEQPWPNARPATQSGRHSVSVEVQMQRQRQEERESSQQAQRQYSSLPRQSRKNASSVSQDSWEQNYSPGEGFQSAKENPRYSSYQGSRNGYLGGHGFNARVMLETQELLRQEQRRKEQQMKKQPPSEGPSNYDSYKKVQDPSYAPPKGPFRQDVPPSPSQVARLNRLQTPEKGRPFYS
# UniProt Q16822, whole entry, looked up: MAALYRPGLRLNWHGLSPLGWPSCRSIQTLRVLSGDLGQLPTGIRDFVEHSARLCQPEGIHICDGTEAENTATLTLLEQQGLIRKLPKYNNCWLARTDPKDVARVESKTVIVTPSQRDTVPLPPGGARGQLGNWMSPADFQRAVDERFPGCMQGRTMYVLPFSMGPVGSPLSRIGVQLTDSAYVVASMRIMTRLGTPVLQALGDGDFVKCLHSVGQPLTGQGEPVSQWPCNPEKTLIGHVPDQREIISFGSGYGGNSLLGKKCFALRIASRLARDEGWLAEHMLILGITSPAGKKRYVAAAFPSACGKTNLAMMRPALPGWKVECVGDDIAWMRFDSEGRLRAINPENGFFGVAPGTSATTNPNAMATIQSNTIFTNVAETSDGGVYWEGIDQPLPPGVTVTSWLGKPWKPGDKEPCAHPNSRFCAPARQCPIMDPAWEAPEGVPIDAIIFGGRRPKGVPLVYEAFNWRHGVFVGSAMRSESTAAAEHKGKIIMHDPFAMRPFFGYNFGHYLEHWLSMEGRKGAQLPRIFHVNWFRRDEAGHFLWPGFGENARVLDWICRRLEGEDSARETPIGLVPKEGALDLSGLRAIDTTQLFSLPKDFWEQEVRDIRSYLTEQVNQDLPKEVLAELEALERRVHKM
# UniProt P09874, whole entry, looked up: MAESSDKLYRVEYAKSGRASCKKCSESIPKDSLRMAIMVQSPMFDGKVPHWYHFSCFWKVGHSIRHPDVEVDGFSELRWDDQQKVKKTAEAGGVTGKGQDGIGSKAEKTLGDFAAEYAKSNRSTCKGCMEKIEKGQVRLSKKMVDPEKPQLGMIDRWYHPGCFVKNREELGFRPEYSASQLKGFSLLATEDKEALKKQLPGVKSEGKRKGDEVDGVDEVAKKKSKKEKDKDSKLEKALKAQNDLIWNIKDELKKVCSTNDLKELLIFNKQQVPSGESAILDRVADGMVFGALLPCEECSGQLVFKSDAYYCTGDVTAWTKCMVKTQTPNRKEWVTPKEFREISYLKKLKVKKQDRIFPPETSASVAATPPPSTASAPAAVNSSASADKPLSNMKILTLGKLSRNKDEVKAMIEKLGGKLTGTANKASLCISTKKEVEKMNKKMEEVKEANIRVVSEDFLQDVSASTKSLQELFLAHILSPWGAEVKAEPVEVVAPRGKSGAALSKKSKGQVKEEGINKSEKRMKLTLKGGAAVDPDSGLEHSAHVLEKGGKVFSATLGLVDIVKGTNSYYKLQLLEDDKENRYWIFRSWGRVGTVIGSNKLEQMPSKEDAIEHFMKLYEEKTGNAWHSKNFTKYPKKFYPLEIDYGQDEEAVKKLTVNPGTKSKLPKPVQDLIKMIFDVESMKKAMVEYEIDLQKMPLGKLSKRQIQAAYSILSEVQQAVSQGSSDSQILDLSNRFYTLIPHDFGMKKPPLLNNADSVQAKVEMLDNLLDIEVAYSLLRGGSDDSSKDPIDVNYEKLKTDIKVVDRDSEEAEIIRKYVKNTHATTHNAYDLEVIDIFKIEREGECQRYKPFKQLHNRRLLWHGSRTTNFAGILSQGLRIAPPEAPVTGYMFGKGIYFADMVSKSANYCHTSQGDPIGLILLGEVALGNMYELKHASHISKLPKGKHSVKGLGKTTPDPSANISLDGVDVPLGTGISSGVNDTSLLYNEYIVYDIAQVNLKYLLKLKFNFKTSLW
# UniProt Q96BN8, 212-233: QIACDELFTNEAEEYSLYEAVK
# UniProt A6NDG6: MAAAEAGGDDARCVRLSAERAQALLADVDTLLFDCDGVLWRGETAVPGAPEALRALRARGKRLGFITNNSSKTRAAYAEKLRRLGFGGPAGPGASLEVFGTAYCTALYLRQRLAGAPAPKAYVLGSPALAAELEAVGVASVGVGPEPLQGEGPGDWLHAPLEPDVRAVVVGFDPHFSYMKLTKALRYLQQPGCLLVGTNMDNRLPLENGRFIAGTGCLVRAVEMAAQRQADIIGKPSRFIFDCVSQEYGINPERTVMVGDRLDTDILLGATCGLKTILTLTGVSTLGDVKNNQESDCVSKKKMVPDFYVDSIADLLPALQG
# UniProt O96013, 255-290: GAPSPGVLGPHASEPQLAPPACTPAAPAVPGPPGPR
# The other results are listed elsewhere or left out. The data scatter; read single values as rough.
# Tests used:
# [1] = compound: ClCC(=O)N[C@@H]1CCCc2ccccc12; experiment: log2 mean competition ratio of IA-DTB cysteine labelling (DMSO/compound) (log2 ratio); higher = stronger cysteine engagement by compound; settings: treatment time: 4 h, cell line lysate: HEK293T
# Procedure: (§1)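 IA-DTB competitive cysteine chemoproteomics in HEK293T RIPA lysate. Lysates were treated with compound 29 or 30 at 50 or 200 µM for 4 h, then IA-DTB (500 µM, 1 h), trypsin-digested, NeutrAvidin-enriched and analysed by diaPASEF. Competition ratio = intensity DMSO / intensity compound (n=4 treated, n=64 DMSO); binding: mean log2 CR ≥ 1 and p ≤ 0.05 plus QC filters. Target is the cysteine site.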
# [2] = compound: ClCC(=O)N[C@H]1CCCc2ccccc12; experiment: as above; settings: treatment time: 4 h, cell line lysate: HEK293T
# Procedure: as §1
Target,log2 mean competition ratio ([1]; 50 µM),log2 mean competition ratio ([1]; 200 µM),log2 mean competition ratio ([2]; 50 µM),log2 mean competition ratio ([2]; 200 µM)
PCLAF C99 (UniProt Q15004),0.298,0.125,0.216,0.165
PABPC1 C132,-0.0888,-0.0898,-0.0904,0.0736
PCLAF C54 (UniProt Q15004),0.496,-0.216,0.318,-0.279
PCNT C563 (UniProt O95613),-0.196,-0.551,0.199,-0.456
PFAS C512 (UniProt O15067),0.253,0.229,-0.437,0.107
PDCD2L C260 (UniProt Q9BRP1),-0.224,0.0391,-0.314,0.0357
PELP1 C536 (UniProt Q8IZL8),0.28,-0.258,-0.239,-0.284
PAF1 C36 (UniProt Q8N7H5),0.037,0.0824,0.11,0.211
PES1 C272 (UniProt O00541),0.357,0.384,0.41,0.158
PCCA C111 (UniProt P05165),-0.0688,-0.255,-0.132,-0.323
PANX1 C170 (UniProt Q96RD7),-0.117,-0.24,0.279,-0.0421
PDP1 C132 (UniProt Q9P0J1),0.000371,-0.354,0.255,-0.329
PDXDC1 C425 (UniProt Q6P996),0.266,0.366,0.174,0.332
PEX2 C283 (UniProt P28328),0.00605,0.0872,-0.384,-0.0328
PDCD2L C100 (UniProt Q9BRP1),-0.169,-0.128,-0.000238,-0.0754
PDCD7 C159 (UniProt Q8N8D1),-0.0316,-0.0387,0.127,0.19
PCMTD1 C238 (UniProt Q96MG8),-0.123,0.109,0.335,0.178
PGAM1 C153 (UniProt P18669),-0.15,0.129,-0.00951,0.0828
PDCD11 C81 (UniProt Q14690),0.0588,0.209,0.0424,0.0305
PAN3 C259 (UniProt Q58A45),0.0403,0.328,-0.0275,0.252
P3H1 C483 (UniProt Q32P28),-0.0841,0.151,-0.167,0.275
PCDH9 C401,-0.0739,-0.112,0.283,0.0919
PHF19 C498 (UniProt Q5T6S3),0.282,-0.349,0.0405,-0.142
PAN2 C575 (UniProt Q504Q3),0.424,0.0817,0.683,0.094
PGGT1B C369 (UniProt P53609),-0.171,-0.0383,0.0123,0.0448

# Full records from above. Values in the order: log2 mean competition ratio ([1]; 50 µM) | log2 mean competition ratio ([1]; 200 µM) | log2 mean competition ratio ([2]; 50 µM) | log2 mean competition ratio ([2]; 200 µM)
# PEX2 C283 (UniProt P28328) is entered as 0.00605 | 0.0872 | -0.384 | -0.0328
# PCLAF C99 (UniProt Q15004) is entered as 0.298 | 0.125 | 0.216 | 0.165
# PDCD2L C100 (UniProt Q9BRP1) is entered as -0.169 | -0.128 | -0.000238 | -0.0754
# PGAM1 C153 (UniProt P18669) is entered as -0.15 | 0.129 | -0.00951 | 0.0828

# Continued:

Target,log2 mean competition ratio ([1]; 50 µM),log2 mean competition ratio ([1]; 200 µM),log2 mean competition ratio ([2]; 50 µM),log2 mean competition ratio ([2]; 200 µM)
PDCD6IP C76 (UniProt Q8WUM4),0.000741,-0.118,-0.442,-0.183
PEAK1 C365 (UniProt Q9H792),0.242,-0.0919,0.164,0.049
PGM1 C160 (UniProt P36871),-0.254,-0.281,-0.149,-0.148
PDS5A C589 (UniProt Q29RF7),-0.27,0.431,0.14,0.428
PDXDC1 C481 (UniProt Q6P996),-0.144,-0.0985,-0.133,0.0478
OTUD4 C45 (UniProt Q01804),0.28,1.58,0.131,1.65
PALB2 C630 (UniProt Q86YC2),0.173,0.0452,-0.0685,0.291
PANK4 C150 (UniProt Q9NVE7),-0.168,0.107,-0.691,-0.317
PEAK1 C685 (UniProt Q9H792),-0.0796,0.249,-0.0897,0.19
PARD3 C323 (UniProt Q8TEW0),-0.0309,-0.314,0.0183,-0.02
PDK3 C191 (UniProt Q15120),0.0103,0.0678,-0.00892,0.0159
PCBP4 C58,-0.011,-0.0151,-0.365,0.0433
PCDHGC3 C792,0.274,-0.0323,0.0906,0.282
PFAS C1027 (UniProt O15067),-0.129,-0.161,0.126,-0.0651
PCNT C2628 (UniProt O95613),0.251,-0.0642,-0.0854,-0.0245
PARD3 C16 (UniProt Q8TEW0),0.185,-0.192,0.12,-0.181
PABPN1 C205 (UniProt Q86U42),-0.143,-0.0796,0.274,-0.0327
PCK2 C559 (UniProt Q16822),0.067,0.188,-0.115,0.188
OXR1 C410 (UniProt Q8N573),-0.0787,-0.19,-0.202,-0.311
PFKM C631,-0.0763,0.412,0.368,0.0879
PAPOLG C604 (UniProt Q9BWT3),-0.157,-0.125,0.144,-0.0829
PDS5A C14 (UniProt Q29RF7),-0.0748,0.161,0.116,0.236
PEX5 C423,-0.407,-0.262,0.337,0.0594
PARP1 C256 (UniProt P09874),-0.00765,-0.183,0.458,0.0115
PCYT1A C73 (UniProt P49585),0.00553,-0.00415,0.0368,-0.156

Target,log2 mean competition ratio ([1]; 50 µM),log2 mean competition ratio ([1]; 200 µM),log2 mean competition ratio ([2]; 50 µM),log2 mean competition ratio ([2]; 200 µM)
PCNT C2446 (UniProt O95613),-0.0342,-0.0914,0.148,0.0665
PARK7 C46 (UniProt Q99497),0.34,-0.492,-0.0485,-2.04
OTULIN C215 (UniProt Q96BN8),-0.523,0.329,-0.206,0.3
PDE5A C68 (UniProt O76074),0.0979,0.00655,0.251,0.0192
PGRMC1 C129 (UniProt O00264),-0.033,0.174,-0.513,-0.13
PHC3 C816 (UniProt Q8NDX5),-0.0215,-0.0388,0.0515,-0.00409
PDE4D C258 (UniProt Q08499),0.692,0.0907,-0.0269,0.0597
PAXIP1 C740 (UniProt Q6ZW49),0.0619,-0.159,-0.472,-0.105
PGK1 C99 (UniProt P00558),-0.323,0.376,-0.202,0.211
PGM2L1 C303 (UniProt Q6PCE3),0.297,0.632,0.39,0.12
PCBP2 C54,-0.0372,-0.0922,-0.0287,0.0308
PGP C297 (UniProt A6NDG6),0.0277,0.00757,0.0646,0.0586
PGAM5 C168 (UniProt Q96HS1),-0.018,-0.166,0.199,-0.101
PAIP1 C470 (UniProt Q9H074),-0.0626,-0.0417,-0.381,0.0255
OTUD5 C519 (UniProt Q96G74),0.485,0.0837,0.514,0.287
PDS5A C532 (UniProt Q29RF7),-0.028,0.424,-0.258,0.377
PCBP4 C113,0.0731,0.0389,-0.22,0.0585
PGP C243 (UniProt A6NDG6),-0.0201,-0.0797,0.246,0.0686
PDXDC1 C361 (UniProt Q6P996),-0.00982,-0.0877,0.32,-0.439
PC C131 (UniProt P11498),-0.0518,-0.197,0.171,-0.0804
PAG1 C179 (UniProt Q9NWQ8),-0.351,0.62,-0.109,0.205
PARP1 C311 (UniProt P09874),-0.123,-0.119,0.42,-0.102
PCCB C90 (UniProt P05166),0.0321,-0.115,-0.0409,-0.0201
PGRMC2 C159 (UniProt O15173),0.117,-0.143,0.138,-0.0813
PCGF3 C113 (UniProt Q3KNV8),-0.205,0.0647,-0.598,-0.00705

Target,log2 mean competition ratio ([1]; 50 µM),log2 mean competition ratio ([1]; 200 µM),log2 mean competition ratio ([2]; 50 µM),log2 mean competition ratio ([2]; 200 µM)
PANK2 C276 (UniProt Q9BZ23),0.095,0.153,0.333,0.204
P3H1 C645 (UniProt Q32P28),-0.106,0.081,-0.0248,0.257
PCNT C2614 (UniProt O95613),-0.16,0.0071,0.0093,-0.00155
PALS1 C366,0.209,0.0693,1,0.596
PDLIM3 C297,0.306,-0.246,0.891,-0.13
PFAS C606 (UniProt O15067),0.413,0.178,0.492,0.0365
PCYOX1L C250 (UniProt Q8NBM8),0.0436,-0.133,0.0139,-0.0938
PDLIM1 C307 (UniProt O00151),-0.496,0.339,-0.106,0.328
PDCD4 C288 (UniProt Q53EL6),0.127,0.183,0.208,0.0258
PFKP C718 (UniProt Q01813),-0.0515,-0.21,-0.332,-0.122
PEX11B C153 (UniProt O96011),0.0122,0.105,-0.0252,0.108
PAFAH1B3 C205 (UniProt Q15102),0.0372,-0.138,0.297,0.0469
PGD C289,-0.0167,-0.049,-0.316,-0.0767
PFAS C1044 (UniProt O15067),0.441,0.066,0.107,0.0496
PALB2 C162 (UniProt Q86YC2),-0.194,0.0638,-0.479,0.0594
PES1 C361 (UniProt O00541),0.549,0.16,0.745,0.0975
PDCD4 C433 (UniProt Q53EL6),-0.124,-0.445,-0.508,-0.308
PDCD6IP C40 (UniProt Q8WUM4),0.0935,0.63,0.347,0.633
PCIF1 C361 (UniProt Q9H4Z3),-0.291,-0.58,-0.468,-0.184
PAK4 C276 (UniProt O96013),-0.404,0.109,-0.231,-0.159
PARK7 C53 (UniProt Q99497),-0.181,-0.459,-0.506,-1.23
PAPOLA C36,-0.062,0.43,0.411,0.506
PGP C272 (UniProt A6NDG6),0.461,-0.511,-0.225,-0.315
